Measured values: publication PMC5025857, “Redox-dependent Regulation of Gluconeogenesis by a Novel Mechanism Mediated by a Peroxidatic Cysteine of Peroxiredoxin” (Scientific Reports, 2016)
These are yes or no findings as the source states them, for the method shown. In cells and extracts the contact can be indirect. These calls come from enrichment with a bait or labelling near it, and not all partners need be listed. Where a sequence is shown, tags or fusion partners need not be part of it.

Amino acid sequences for entries named in this document (tags omitted).
UniProt P32614: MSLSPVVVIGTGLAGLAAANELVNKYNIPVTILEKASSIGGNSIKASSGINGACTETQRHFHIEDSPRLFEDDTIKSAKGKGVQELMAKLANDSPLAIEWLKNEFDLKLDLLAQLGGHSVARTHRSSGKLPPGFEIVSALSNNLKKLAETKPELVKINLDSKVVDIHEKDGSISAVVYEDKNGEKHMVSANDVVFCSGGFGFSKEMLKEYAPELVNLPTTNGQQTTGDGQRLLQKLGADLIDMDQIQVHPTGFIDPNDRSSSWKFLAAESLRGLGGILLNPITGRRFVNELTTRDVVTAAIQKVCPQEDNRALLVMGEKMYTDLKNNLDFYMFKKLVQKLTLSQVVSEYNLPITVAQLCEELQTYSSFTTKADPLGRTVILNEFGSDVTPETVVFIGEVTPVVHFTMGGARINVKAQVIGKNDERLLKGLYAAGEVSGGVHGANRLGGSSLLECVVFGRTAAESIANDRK

T1: HAT-tagged Tsa1^C171T (S. cerevisiae) (UniProt P34760)
T1 sequence: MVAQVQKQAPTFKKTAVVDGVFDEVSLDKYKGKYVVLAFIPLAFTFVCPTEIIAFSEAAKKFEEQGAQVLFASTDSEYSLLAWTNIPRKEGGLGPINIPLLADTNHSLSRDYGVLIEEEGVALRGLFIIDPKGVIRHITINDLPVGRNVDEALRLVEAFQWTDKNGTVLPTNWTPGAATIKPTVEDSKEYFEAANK

B1: PI SceI (intein Vde1) (protein, UniProt P17255 284-737)
chain: CFAKGTNVLMADGSIECIENIEVGNKVMGKDGRPREVIKLPRGRETMYSVVQKSQHRAHKSDSSREVPELLKFTCNATHELVVRTPRSVRRLSRTIKGVEYFEVITFEMGQKKAPDGRIVELVKEVSKSYPISEGPERANELVESYRKASNKAYFEWTIEARDLSLLGSHVRKATYQTYAPILYENDHFFDYMQKSKFHLTIEGPKVLAYLLGLWIGDGLSDRATFSVDSRDTSLMERVTEYAEKLNLCAEYKDRKEPQVAKTVNLYSKVVRGNGIRNNLNTENPLWDAIVGLGFLKDGVKNIPSFLSTDNIGTRETFLAGLIDSDGYVTDEHGIKATIKTIHTSVRDGLVSLARSLGLVVSVNAEPAKVDMNGTKHKISYAIYMSGGDVLLNVLSKCAGSKKFRPAPAAAFARECRGFYFELQELKEDDYYGITLSDDSDHQFLLANQVVVHN
B2: Yol057w (dipeptidyl-peptidase III) (enzyme, UniProt Q08225 1-711)
chain: MSHFFADHDAPLSMLSVKTEYFPQLTDKEQKYAHFMSKASHAGSRVVMRQVSHESEPIFDLILAIHSKLNGKYPEDDITQKQQTGLYLEYVSQFLSNLGNFKSFGDTKFIPRCEVKFFKQLLELAKINPCSSPLTLSPVDVNHEFTSHHLFSTINELIDIGIYHVEEKAALLGFPSQGYTSAYYLGLPVTPEDMALLKEQLFAELAILPENTRINKVGENSFQIWVASENVKNQITETYPSGQITLSNAVTKVEFIFGDHSREMRLVASYLKEAQKFAANDTQKAMLQEYINHFVTGSSQAHKEAQKLWVKDISPVIETNIGFIETYREPSGIIGEFESLVAIQNKERTAKFSSLVNNAEEFISLLPWSKDYEKPIFNPPDFTSLEVLTFTGSGIPAGINIPNYDDVRLKIGFKNVSLGNILSAAAKSSSKHPPSFISQEDRPIFEKYQSDSFEVQVGIHELLGHGSGKLLTEFTDGFNFDKENPPLGLDGKPVSTYYKVGETWGSKFGQLAGPFEECRAEVIAMFLLTNKKILDIFGFHDVESQDKVIYAGYLQMARAGLLALEYWNPKTGKWGQPHMQARFSIMKTFMKHSTDKNFLKLEMNSTNDDFAIKLDKSLIKTAGHECVKDYLKHLHVYKCSGDVEQGSKYFIDRSTVTPDLASLRDIVLSKRLPRRQFIQSNSYIDDNNKVTLKEYDETPQGMLQSFLDREL

Biological target: T1, HAT-tagged Tsa1^C171T (S. cerevisiae)
Assay: affinity purification with mass spectrometry; HAT-tagged Tsa1^C171T captured on TALON metal affinity resin from lysate of tsa1Δ cells treated with 0.5 mM H2O2 for 5 min (Buffer L, pH 8.0, 300 mM NaCl, 50 mM NEM); eluate separated by two-dimensional SDS-PAGE (non-reduced, then reduced); spots identified by MALDI-TOF MS

Molecule	binding
Frd1 (soluble fumarate reductase) (from UniProt P32614 1-470) (enzyme)	binds
B1	binds
B2	binds
